Results on three molecules are retold here after article PMC6928932.

Chains of the proteins cited; added tags and fusions are not shown. Residues count along the entry.
UniProt Q6W4X9, residues 23-2439: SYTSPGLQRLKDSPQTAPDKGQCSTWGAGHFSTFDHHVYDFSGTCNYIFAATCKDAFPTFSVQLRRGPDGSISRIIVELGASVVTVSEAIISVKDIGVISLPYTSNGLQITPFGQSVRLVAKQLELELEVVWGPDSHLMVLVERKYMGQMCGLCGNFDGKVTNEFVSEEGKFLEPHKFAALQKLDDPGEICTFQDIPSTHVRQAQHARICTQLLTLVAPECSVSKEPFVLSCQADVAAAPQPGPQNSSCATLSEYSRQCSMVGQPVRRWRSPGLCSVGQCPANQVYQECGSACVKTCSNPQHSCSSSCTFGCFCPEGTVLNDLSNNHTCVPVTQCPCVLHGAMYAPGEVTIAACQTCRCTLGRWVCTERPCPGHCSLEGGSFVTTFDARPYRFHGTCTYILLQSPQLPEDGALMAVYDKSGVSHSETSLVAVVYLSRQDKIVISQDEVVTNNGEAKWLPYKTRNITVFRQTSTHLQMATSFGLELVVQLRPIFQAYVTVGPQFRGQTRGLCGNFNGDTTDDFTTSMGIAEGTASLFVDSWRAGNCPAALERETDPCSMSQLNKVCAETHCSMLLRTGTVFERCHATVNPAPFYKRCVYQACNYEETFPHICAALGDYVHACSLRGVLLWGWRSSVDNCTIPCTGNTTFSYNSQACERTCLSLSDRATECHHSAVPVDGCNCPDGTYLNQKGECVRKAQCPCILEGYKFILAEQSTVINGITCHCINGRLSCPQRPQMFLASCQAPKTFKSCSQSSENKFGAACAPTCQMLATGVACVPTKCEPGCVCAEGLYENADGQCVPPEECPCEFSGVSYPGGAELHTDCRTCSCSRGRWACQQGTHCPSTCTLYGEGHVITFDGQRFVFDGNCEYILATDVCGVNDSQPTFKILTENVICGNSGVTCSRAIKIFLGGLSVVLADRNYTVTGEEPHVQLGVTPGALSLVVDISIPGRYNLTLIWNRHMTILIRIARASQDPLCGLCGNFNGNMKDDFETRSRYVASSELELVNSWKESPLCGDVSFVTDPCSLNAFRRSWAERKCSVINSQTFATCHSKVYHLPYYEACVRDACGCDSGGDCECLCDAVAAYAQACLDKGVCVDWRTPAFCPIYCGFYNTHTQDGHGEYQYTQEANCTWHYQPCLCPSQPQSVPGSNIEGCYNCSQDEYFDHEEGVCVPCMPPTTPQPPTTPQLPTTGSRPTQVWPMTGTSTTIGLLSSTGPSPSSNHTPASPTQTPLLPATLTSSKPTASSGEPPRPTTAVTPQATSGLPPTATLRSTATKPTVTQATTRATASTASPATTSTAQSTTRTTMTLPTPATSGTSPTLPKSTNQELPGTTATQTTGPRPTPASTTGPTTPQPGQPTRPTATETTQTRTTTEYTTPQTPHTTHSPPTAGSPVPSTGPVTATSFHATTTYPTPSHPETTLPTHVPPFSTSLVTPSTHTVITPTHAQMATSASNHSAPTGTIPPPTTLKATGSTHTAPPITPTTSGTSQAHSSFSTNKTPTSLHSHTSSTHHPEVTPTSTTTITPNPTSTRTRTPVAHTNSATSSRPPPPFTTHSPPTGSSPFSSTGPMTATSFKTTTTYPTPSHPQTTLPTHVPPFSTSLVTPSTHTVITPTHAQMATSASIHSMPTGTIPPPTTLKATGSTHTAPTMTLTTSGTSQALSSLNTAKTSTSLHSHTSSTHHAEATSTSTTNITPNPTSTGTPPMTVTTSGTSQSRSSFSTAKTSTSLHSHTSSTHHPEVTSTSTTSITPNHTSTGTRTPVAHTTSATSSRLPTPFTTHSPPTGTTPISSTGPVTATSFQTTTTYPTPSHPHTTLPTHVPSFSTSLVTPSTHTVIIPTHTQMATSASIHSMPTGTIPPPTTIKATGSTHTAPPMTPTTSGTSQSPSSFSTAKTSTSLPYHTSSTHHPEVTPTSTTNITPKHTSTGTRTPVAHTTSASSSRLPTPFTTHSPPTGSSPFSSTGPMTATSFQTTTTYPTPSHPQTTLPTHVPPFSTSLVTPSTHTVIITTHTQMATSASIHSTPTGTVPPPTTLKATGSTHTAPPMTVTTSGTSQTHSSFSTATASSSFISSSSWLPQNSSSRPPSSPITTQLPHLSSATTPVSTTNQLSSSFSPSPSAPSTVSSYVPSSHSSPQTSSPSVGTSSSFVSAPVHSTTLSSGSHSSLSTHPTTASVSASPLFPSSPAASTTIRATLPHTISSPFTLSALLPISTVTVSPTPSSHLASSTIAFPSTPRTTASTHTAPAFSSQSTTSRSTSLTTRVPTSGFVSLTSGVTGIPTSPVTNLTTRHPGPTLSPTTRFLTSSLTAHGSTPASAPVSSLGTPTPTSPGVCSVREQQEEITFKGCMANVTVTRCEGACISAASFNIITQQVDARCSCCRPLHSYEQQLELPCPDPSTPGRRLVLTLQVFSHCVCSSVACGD

In assay [1] the target is human gastric TFF2 (endogenous) (human (endogenous in gastric corpus tissue)) (UniProt Q03403). The assay is described as follows: SEC + other: SDS-PAGE with Western blot; low-molecular-mass SEC fractions of human gastric extract, 15% SDS-PAGE under reducing and non-reducing conditions, Western blot for TFF2. On the technique in general: Immunoblotting shows a protein as a band on a membrane.

For assay [2], the target named is 125I-labeled recombinant human glycosylated TFF2 (human) (UniProt Q03403). The assay is described as follows: non-reducing SDS-PAGE and autoradiography; 125I-labeled TFF2 without S-mucin, 15% SDS-PAGE under non-reducing conditions; both purified.
Assay [3] has as its target human gastric mucin MUC6 (human (endogenous in gastric corpus tissue)) (UniProt Q6W4X9). The assay is described as follows: far-Western, overlay or dot blot; 125I-labeled TFF2 incubated with a nitrocellulose blot of a 1% AgGE of Sephacryl S-500 fractions B8-D12 of a human gastric corpus E1-extract reduced in boiling 1% β-mercaptoethanol; autoradiography; only the binder purified.

No constants are given. Whether binding was seen depends on the method and setting. Some results given as binding are weak or reduced against the parent protein; the word gives no strength.

B1: human gastric TFF2 (endogenous) (protein, UniProt Q03403 24-129)
chain: EKPSPCQCSRLSPHNRTNCGFPGITSDQCFDNGCCFDSSVTGVPWCFHPLPKQESDQCVMEVSDRRNCGYPGISPEECASRKCCFSNFIFEVPWCFFPKSVEDCHY
modifications: mainly N-glycosylated, to a minor extent non-glycosylated
On to B1, for which the binding result in assay [1] is recorded as “no binding”.

B2: 125I-labeled recombinant human glycosylated TFF2 (protein, UniProt Q03403 24-129)
chain: B1 chain
modifications: 125I label; N-glycosylated (glycosylated form)
For the molecule B2, the binding result in assay [2] is reported as “no binding”.

B3: 125I-labeled porcine pancreatic TFF2 (protein, UniProt P01359 22-127)
chain: QKPAACRCSRQDPKNRVNCGFPGITSDQCFTSGCCFDSQVPGVPWCFKPLPAQESEECVMEVSARKNCGYPGISPEDCARRNCCFSDTIPEVPWCFFPMSVEDCHY
modifications: 125I label
For B3, the binding result in assay [3] is “binds”.
